# Hit rate of the full screen: of about 360,000 compounds, about 7,500 (2.1%) were called active. The shares of active, inactive and inconclusive entries below differ from those in the screen. Calls follow the shape of the dose curve; as a rule, active = well fitted inhibition curve with a large enough effect; inconclusive = small, poorly fitted or top-dose-only effect, or effect the other way; inactive = flat fitted curve, though single readings scatter. Where the call is inconclusive, the potency comes from a doubtful curve fit.
# Assay: Nrf2 qHTS screen for inhibitors; also: nearly all actives have a fitted effect of over 60% in size
# Conditions: A549 ARE-Fluc reporter, luciferase luminescence, 18-24 h; series mostly up to 46 µM
# Outline: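 In this cell-based qHTS, ARE-driven firefly luciferase in A549 cells reports Nrf2 activity; the luminescent signal after BugLite lysis is the measured value, with a prior CellTiter-Fluor read for cell health.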
# Potency is read from the fitted curve at half-maximal effect.
row,SMILES,Potency
1,Cc1cc(C)c(C(=O)CSc2n[nH]c(=O)n2C2CC2)cc1C,"inconclusive: 22.4 µM [falling, single point]"
2,Cc1ccc(CN=c2c([N+](=O)[O-])nn(-c3ccc(Cl)cc3)n2O)cc1,"inconclusive: 20.6 µM [activator, single point]"
3,O=c1ccn(Cc2ccccc2)c(SCc2ccccc2)n1,inactive
4,O=C(CSc1nc(Cc2ccccc2)nc2ccccc12)Nc1nc2c(s1)CCCC2,"inconclusive: 32.6 µM [falling, partial curve, poor fit]"
5,COc1ccc(O)c(-c2c(-c3ccc(Cl)cc3)n[nH]c2C)c1,"inconclusive: 29.1 µM [falling, single point]"
6,Cc1ccc(CCNC(=O)c2cc(-c3ccc(Cl)cc3)n[nH]2)cc1,"inconclusive: 29.1 µM [activator, single point]"
7,COc1ccc(/C=C2\SC(=O)N(CCNC(=O)Cc3coc4cc(OC)ccc34)C2=O)cc1,"inconclusive: 25.9 µM [falling, single point]"
8,c1ccc(Cn2c(-c3ccco3)nc3nc4ccccc4nc32)cc1,"inconclusive: 7.08 µM [activator, partial curve]"
9,Cc1ccc(NC(=O)c2ccc3[nH]c(C)cc(=O)c3c2)c(C)c1,"inconclusive: 2.06 µM [activator, full curve]"
10,Cc1ccc(S(=O)(=O)Nc2cc(C(F)(F)F)ccc2N2CCOCC2)cc1C,"inconclusive: 20.6 µM [falling, single point]"
11,Cc1ccc(C(=O)NC(=S)N2CCN(c3cc(C)ccc3C)CC2)cc1,"inconclusive: 29.1 µM [falling, single point]"
12,COC(=O)CCC(=O)Nc1sc(C)c(C)c1C(N)=O,"inconclusive: 3.66 µM [activator, partial curve, poor fit]"
13,COc1ccc(Nc2ncc3c(n2)CCN(C(=O)OC(C)(C)C)C3)cc1,"inconclusive: 29.1 µM [falling, single point]"
14,CCOc1cc(C(=O)NCc2ccc(-c3nc4ccccc4o3)cc2)cc(OCC)c1OCC,"inconclusive: 1.3 µM [falling, partial curve, poor fit]"
15,Cc1c(C(=O)N2CCCC2)sc(NC(=O)c2ccco2)c1C#N,"inconclusive: 3.26 µM [falling, single point]"
16,CCCc1cnc(N2CCN(C(=O)c3ccccc3)CC2)nc1,"inconclusive: 29.1 µM [falling, single point]"
17,CCCn1c(=O)[nH]c(=O)c2c1nc(-c1ccc(C(F)(F)F)cc1)n2CCOC,"inconclusive: 7.31 µM [falling, partial curve]"
18,COC(=O)c1cc(Br)c(=O)n(Cc2ccc(OC)c(OC)c2)c1,"inconclusive: 14.6 µM [falling, single point]"
19,CCCCn1c(=O)c2c(nc3n2CCCN3Cc2ccccc2)n(C)c1=O,"inconclusive: 25.9 µM [falling, single point]"
20,Cc1[nH]n(C(C)(C)C)c(=O)c1Sc1ccc(Cl)cc1,"inconclusive: 3.26 µM [falling, full curve, poor fit]"

# Two entries from above, as tab-separated lines:
row	SMILES	Potency
11	Cc1ccc(C(=O)NC(=S)N2CCN(c3cc(C)ccc3C)CC2)cc1	inconclusive: 29.1 µM [falling, single point]
12	COC(=O)CCC(=O)Nc1sc(C)c(C)c1C(N)=O	inconclusive: 3.66 µM [activator, partial curve, poor fit]

# The list goes on:

row,SMILES,Potency
1,O=C(CC(c1ccccc1)c1ccccc1)Nc1ccncc1,"inconclusive: 32.6 µM [falling, partial curve, poor fit]"
2,O=C(CNCc1ccccc1)Nc1ccccc1-c1ccccc1,inactive
3,CC(=O)c1ccc(NC(=O)Cn2ncc3c(C)n(Cc4ccc(F)cc4)c(C)c3c2=O)cc1,inactive
4,N#C/C(=C/c1ccccc1[N+](=O)[O-])c1nnc2n1CCCCC2,inactive
5,NNc1nc(Nc2ccc([N+](=O)[O-])cc2)nc(N2CCCCCC2)n1,"inconclusive: 2.31 µM [activator, partial curve, poor fit]"
6,CCOc1ccc(S(=O)(=O)N2CCN(Cc3ccccc3)CC2)c2cccnc12,"inconclusive: 18.4 µM [falling, single point]"
7,COc1ccccc1C(=O)Nc1nc2nc(C)c(Cc3ccccc3)c(=O)n2[nH]1,"inconclusive: 14.6 µM [activator, partial curve, poor fit]"
8,C#CCOCCOCCOCCNc1nc(N2CCN(C(=O)Cn3cc(CCCN=C(N)N)nn3)CC2)nc(N2CCN(C(=O)Cn3cc(CC(C)O)nn3)CC2)n1 (stereo not given),inactive
9,CC(C)(C)c1ccc2c(c1)OC(C(=O)N/N=C\c1ccc[nH]1)CO2 (stereo not given),active: 5.8 µM
10,CCOC1=NC(C(=O)O)c2ccccc2/C(=C(/C)Cl)N1 (stereo not given),"inconclusive: 18.4 µM [activator, partial curve, poor fit]"
11,COc1cccc(-c2noc(C3CCCN(C(=O)c4ccccc4OC)C3)n2)c1 (stereo not given),"inconclusive: 29.1 µM [falling, single point]"
12,COc1ccc(C)cc1Nc1n[n+](-c2ccccc2)c(-c2ccc(NC(C)=O)cc2)s1,"inconclusive: 29.1 µM [activator, single point]"
13,COc1ccc2[nH]cc(CCNS(=O)(=O)c3ccccc3)c2c1,"inconclusive: 16.4 µM [falling, partial curve, poor fit]"
14,Cc1ccccc1C(=O)NC(=S)NC1CC1,"inconclusive: 20.6 µM [activator, single point]"
15,COc1c(C)cccc1C(=O)Nc1ccc(CN2CCCCC2)cc1,"inconclusive: 6.51 µM [falling, single point]"
16,Cc1ccccc1CNC(=O)CCC(=O)N1CC2CCCN2c2ccccc21 (stereo not given),"inconclusive: 14.6 µM [falling, partial curve, poor fit]"
17,Cn1cc([N+](=O)[O-])c(C(=O)Nc2cc(Oc3cccnc3)cc([N+](=O)[O-])c2)n1,"inconclusive: 5.17 µM [falling, partial curve]"
18,O=C(NCc1ccccc1)c1ccc(S(=O)(=O)N2CCCc3ccccc32)cc1,"inconclusive: 29.1 µM [falling, single point]"
19,CCN(c1ccc(NC(=O)CSc2ccc3c(c2)OCCO3)cc1)C(C)C,"inconclusive: 23.1 µM [falling, partial curve, poor fit]"
20,CCN(C(=O)Cn1c(=O)n(CC2CCC(C(=O)NC)CC2)c(=O)c2sccc21)c1ccccc1 (stereo not given),"inconclusive: 16.4 µM [activator, partial curve, poor fit]"

# — PubChem BioAssay AID504444 (National Center for Advancing Translational Sciences (NCATS), 2011)
